# Experimental data from PubChem BioAssay AID652054 (National Center for Advancing Translational Sciences (NCATS), 2013).
# Protein sequences, listed by entry. Tags and fused reporters are not part of them.
# UniProt P35462, whole entry, looked up: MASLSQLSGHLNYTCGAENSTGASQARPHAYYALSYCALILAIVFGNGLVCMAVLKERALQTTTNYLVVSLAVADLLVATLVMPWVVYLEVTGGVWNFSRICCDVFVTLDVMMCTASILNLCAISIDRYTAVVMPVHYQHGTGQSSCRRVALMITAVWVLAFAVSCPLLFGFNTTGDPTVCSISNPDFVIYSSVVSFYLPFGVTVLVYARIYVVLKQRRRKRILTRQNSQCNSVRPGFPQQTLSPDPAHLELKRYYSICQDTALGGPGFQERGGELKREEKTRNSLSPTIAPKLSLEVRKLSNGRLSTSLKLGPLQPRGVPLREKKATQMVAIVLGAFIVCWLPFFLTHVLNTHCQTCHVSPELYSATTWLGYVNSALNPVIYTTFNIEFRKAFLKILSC
# Among all 360,000 compounds or so, about 9,100 (2.5%) were called active. The inconclusive results got no clear call from the source; some entries with a clear call stand among them for comparison. Cut-off read from the data, not from the text of the source: active = max response below about -50%; inconclusive = no clear call, values can overlap the other calls; inactive = above that.
# Target: D(3) dopamine receptor (Homo sapiens) (UniProt P35462)
# Experiment: qHTS of D3 Dopamine Receptor Antagonist: qHTS
# Conditions: D3R cells, DiscoveRx beta-arrestin luminescence, antagonist mode; hits give low values
# In short: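 Cells plated overnight at 1500 cells/well, then exposed to library compounds with dopamine controls for 90 minutes at 37 degrees C. DiscoveRx reagent added for 30–60 minutes at room temperature; luminescence read, quantitative HTS format.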
# % is set by controls: 0 for no effect and ±100 for the full control effect.
row,Compound,"max response, negative = inhibition"
1,O=C(CSc1nnc(NCc2ccccc2)s1)c1ccco1,inconclusive: -46.7%
2,COC[C@@H]1CCCN1[C@@H]1CS(=O)(=O)N[C@H]1COCc1ccccc1,inconclusive: -30.9%
3,CC1=Nc2ccccc2/C1=C\c1sc(Nc2ccc(C)cc2)nc1O,active: -54.2%
4,COCc1c(C(=O)NCc2ccccc2CN2CCCC2)oc2ccccc12,inconclusive: -39.5%
5,O=C(COC(=O)c1ccc(Cl)nc1)Nc1nnc(-c2ccccc2)o1,inactive: -5.69%
6,O=C1NC(=S)N/C1=C/c1cccc([N+](=O)[O-])c1O,active: -74.8%
7,CC1OC(CCc2cccc(Cl)c2)Cc2[nH]c(=S)[nH]c(=O)c21 (stereo unspecified),inconclusive: -44.1%
8,Cc1c(C#N)c2ccccc2n1CC(=O)O,inconclusive: -40.8%
9,N#CC(C#N)=c1ccc2c(c1)N1C(c3ccccc3)=CC(c3ccccc3)C3CCCCC31N=2 (stereo unspecified),inactive: 6.82%
10,CCc1cc(CNC(=O)c2ccc(OC3CCN(CCc4ccccc4)CC3)cc2)on1,inconclusive: -40.9%
11,CCN1CCN(c2ccc(NC(=O)c3cccc(OCc4ccccc4)c3)cc2)CC1,inconclusive: -42.6%
12,CCN(CC(=O)Nc1cc(Cl)ccc1C)C(=O)CSCc1ccc(C)cc1,inconclusive: -39.3%
13,O=C(NCCN1CCN(c2ccccc2F)CC1)C1CCCN(S(=O)(=O)c2cnc[nH]2)C1 (stereo unspecified),active: -55.9%
14,O=c1c(-c2nnc(SCc3ccc(Cl)cc3Cl)o2)cccn1Cc1ccccc1,inactive: 16.1%
15,CCCSc1nnc(Sc2nnnn2-c2ccccc2)s1,inconclusive: -41.5%
16,O=C(COc1ccccc1)NC1CCN(Cc2ccccc2)CC1,inconclusive: -48.6%
17,O=C(CSc1ncnc2c1cnn2-c1ccccc1Cl)N1CCN(C(=O)c2ccco2)CC1,inconclusive: -32%
18,CCN(CC)CCN(C(=O)c1ccc(S(=O)(=O)N(C)C2CCCCC2)cc1)c1nc2c(C)cccc2s1,inconclusive: -33.5%
19,COc1ccc(CNC(=O)CCCn2nc(C)c([N+](=O)[O-])c2C)cc1OC,inactive: -2.44%
20,O=C(NCCc1ccc(Cl)cc1)C1CCN(S(=O)(=O)c2ccc(Br)s2)CC1,inconclusive: -30.4%
21,Cc1ccccc1C(=O)NCCc1nnc(SCC(=O)Nc2nc(-c3ccccc3)cs2)n1C,inconclusive: -39.3%
22,O=C(C1CC1)N1CCc2cc(Br)cc(S(=O)(=O)NC3CCCCC3)c21,inconclusive: -48.2%

row,Compound,"max response, negative = inhibition"
1,Cc1cccc(C)c1OCc1cn(CC(=O)c2ccc(O)cc2)nn1,active: -61.5%
2,CN1/C(=C\C(=O)Nc2ccc(Cl)cc2)C(C)(C)c2ccccc21,inactive: 12.5%
3,O=C(c1ccccc1)C1CCN(C(=O)c2ccco2)CC1,inactive: -2.52%
4,c1ccc2c(OCCCCN3CCCC3)cccc2c1,inconclusive: -33.3%
5,CCCCC(=O)Nc1ccc(C(=O)Nc2nnc(COC)s2)cc1,inconclusive: -41.1%
6,O=C(COc1ccc(Cl)cc1Cl)N1CCNC1=O,inactive: -5.48%
7,CCN1CCN(c2ccc(S(=O)(=O)N3CCCCC3)cc2NC(=O)C(C)Oc2ccc(F)cc2)CC1 (stereo unspecified),inconclusive: -30.4%
8,Cc1ccc(-c2n[nH]c(=S)n2C)cc1,inactive: 6.59%
9,Cc1csc(NC(=O)CCNS(=O)(=O)c2ccc3c(c2)c(=O)n(C)c(=O)n3C)n1,active: -92.8%
10,COc1ccc(NC(=O)c2cc(C3CCCCN3C(=O)c3ccc4c(c3)CCO4)on2)c(C)c1 (stereo unspecified),inconclusive: -46.1%
11,C#CCOCCOCCOCCNc1nc(N2CCN(C(=O)CCCCCCCCCCNC(=O)Cn3cc(CCCCCN)nn3)CC2)nc(N2CCN(C(=O)CCCCCCCCCCNC(=O)[C@H]([C@@H](C)CC)n3cc(CCCCN=C(N)N)nn3)CC2)n1,active: -63.2%
12,CNc1nc(Sc2ccccc2)cc(C(F)(F)F)n1,inconclusive: -46.1%
13,Cc1cc(Br)c(OCc2ccc(C(=O)N/N=C/c3ccc[nH]3)cc2)c(Br)c1,inconclusive: -31%
14,COc1cccc(NC(=O)C2CC(=O)n3cnnc3S2)c1 (stereo unspecified),inconclusive: -42.8%
15,COc1ccccc1NS(=O)(=O)c1cc(NC(=O)CNC(=O)c2ccc(C)s2)ccc1Cl,inconclusive: -43%
16,CN1CCN(C(=O)c2cnn(-c3ccccc3)c2NC(=O)c2ccccc2Cl)CC1,inconclusive: -33.7%
17,Cc1nc(Nc2ccc3c(c2)OCCO3)c2c(C)c(C)sc2n1,inactive: 4.1%
18,COc1ccc(NC(=O)c2cc3ccccn3n2)cc1,inactive: -19.9%
19,CC1CCN(CC(=O)NNC(=O)c2cccc(Br)c2)CC1,active: -50%
20,CCN(CC)CCCNC(=S)N1CCn2c(nc3ccccc32)C1,inactive: -13.6%
21,Cc1ccc(C)c(N2CCN(CCCNC(=O)Cn3cccc3C(=O)c3ccccc3C)CC2)c1,active: -56.7%
22,OC(COC(c1ccc(Cl)cc1)c1ccc(Cl)cc1)CN1CCCC1 (stereo unspecified),inconclusive: -49.5%

# Shown bar-delimited: part of the list above.
row | Compound | max response, negative = inhibition
1 | Cc1cccc(C)c1OCc1cn(CC(=O)c2ccc(O)cc2)nn1 | active: -61.5%
3 | O=C(c1ccccc1)C1CCN(C(=O)c2ccco2)CC1 | inactive: -2.52%
9 | Cc1csc(NC(=O)CCNS(=O)(=O)c2ccc3c(c2)c(=O)n(C)c(=O)n3C)n1 | active: -92.8%
18 | COc1ccc(NC(=O)c2cc3ccccn3n2)cc1 | inactive: -19.9%

# Following part:

row,Compound,"max response, negative = inhibition"
1,Cc1ccc(NC(=O)c2ccc(-n3cccn3)c([N+](=O)[O-])c2)cc1,active: -52.6%
2,CCOC(=O)C1=C(COC(=O)CCOc2ccccc2C)NC(=O)NC1C (stereo unspecified),active: -65.2%
3,Cc1c(Cl)cccc1Nc1nc(N)nc(CSc2nc3ccccc3s2)n1,inactive: 31.2%
4,COc1ccc(C(=O)N/C(=C\c2ccc([N+](=O)[O-])cc2)C(=O)NC(CCSC)C(=O)O)cc1 (stereo unspecified),inactive: -14%
5,CCCCN(CC)S(=O)(=O)c1ccc(C(=O)Nc2nnc(COC)o2)cc1,active: -65%
6,N#C/C(=C\c1ccc(O)c(Br)c1)C(=O)N1CCCCC1,inconclusive: -30.6%
7,CCNc1nc2c(c(=O)[nH]c(=O)n2C)n1CCCc1ccccc1,inactive: 20.5%
8,COc1ccccc1N(C(=O)c1snc(C(N)=O)c1N)C(C(=O)NCc1ccccc1)c1ccc(C)o1 (stereo unspecified),inactive: 11.1%
9,O=C(Nc1ccccc1)c1ccc[n+](Cc2ccc([N+](=O)[O-])cc2)c1,active: -56.2%
10,O=C(CSc1nnnn1C1CCCCC1)N1CCc2ccccc21,inconclusive: -30.3%
11,O=C(CC1NCCc2ccccc21)Nc1cccc(Cl)c1 (stereo unspecified),active: -95.5%
12,O=C(COc1ccc(S(=O)(=O)NC2CCCCC2)cc1Cl)NCc1ccc2c(c1)OCO2,inconclusive: -31.3%
13,O=C(NCCNCCO)C1(C(F)(F)F)C/C(=C\Cc2ccccc2)CCCO1 (stereo unspecified),inconclusive: -46.7%
14,Nc1nc(-c2nc3ccccc3[nH]2)cs1,inconclusive: -44.3%
15,CN(C)c1nnnn1-c1ccc(OC(F)(F)F)cc1,inactive: -10.1%
16,COc1ccc(C2/C(=C(/O)c3ccc(Cl)cc3)C(=O)C(=O)N2CCN2CCOCC2)c(OC)c1 (stereo unspecified),inactive: 0%
17,COc1ccc(CNC(=O)c2cn(Cc3ccccc3OC)c(=O)s2)cc1,inactive: 2.01%
18,CCCCCCN1CCN(C2CN(CCc3ccccc3)S(=O)(=O)C2)CC1 (stereo unspecified),inconclusive: -38.9%
19,C/C=C/c1cc(CN2CCN(c3ccc(OC)cc3)CC2)c(O)c(OC)c1,inconclusive: -43%
20,CC(C)C[C@H](NC(=O)OC(C)(C)C)C(=O)N[C@@H](CO)[C@H](O)[C@@H]1C[C@@H]1C(=O)NC1CC1,inconclusive: -33.3%
21,CCOC(=O)c1ccc(S(=O)(=O)n2c(CN3CCCCC3)nc3ccccc32)cc1,inconclusive: -47.9%
22,Cc1c(Cl)cccc1NC(=O)CN1CCC(C(O)(c2ccccc2)c2ccccc2)CC1,active: -62.2%

row,Compound,"max response, negative = inhibition"
1,O=[N+]([O-])c1cccc(C=NNc2ccc3ccccc3n2)c1O,active: -54.4%
2,CCOC(=O)C1(C)/C(=N/Nc2ccc(S(N)(=O)=O)cc2)C(=O)C(=O)N1c1ccccc1 (stereo unspecified),inconclusive: -49.2%
3,COc1ccccc1CN(C)C[C@@H]1OCc2cnnn2CCCC(=O)N([C@H](C)CO)C[C@H]1C,inconclusive: -31.7%
4,O=C(NCCNC(=O)c1ccccc1O)c1ccccc1O,inactive: -9.48%
5,Cn1c(CCN2CCCCC2)nc2cc([N+](=O)[O-])ccc21,inconclusive: -48.9%
6,CCCCc1c(-c2ccccc2OC)ncn1Cc1ccc(-c2ccccc2)cc1,inconclusive: -31.3%
7,FC(F)(F)c1ccc(CN2C[C@@H]3C(c4ccc(Cl)nc4)C4(c5cccnc5)CC3(C4)[C@H]2c2ccccc2)cc1 (stereo partly specified),inactive: -12.3%
8,CN(c1ccccc1)S(=O)(=O)c1cccc(NC(=O)COC(=O)C2CCCCC2)c1,inactive: 9.49%
9,Cc1ccc(-n2nc3c(=O)n(C(C)C(=O)NCCCc4ccccc4)nc(C)c3c2C)cc1 (stereo unspecified),inactive: -10.7%
10,Cc1ccc2nc(-c3sc4nc(C)ccc4c3N)[nH]c2c1,inactive: 9.65%
11,Cc1ccc(OCCCCn2cnc3ccccc32)c(C)c1,active: -57%
12,CCc1ccc(CN2CCCC(CNS(=O)(=O)c3ccc(OC)cc3)C2)cc1 (stereo unspecified),inconclusive: -41.7%
13,CS(=O)(=O)c1ccc(C(=O)Nc2cc(-c3ccccc3)nn2-c2ccccc2)cc1,inconclusive: -30.4%
14,CCOc1ccc(CN2CCC(Cc3ccccc3)CC2)cc1,inconclusive: -42%
15,CCOC(=O)c1[nH]c2ccc(OC)cc2c1NC(=O)CN1CCSCC1,inactive: 47.9%
16,CC(C)n1nccc1N(Cc1ccc(Cl)cc1)S(=O)(=O)c1ccccc1,inactive: -4.12%
17,COc1ccccc1OCCNC(=O)c1ccc2c(c1)CCC2,inconclusive: -37.7%
18,CN1CCSc2ccc(C(=O)NCc3cccc(F)c3)cc21,inconclusive: -42.6%
19,O=S(=O)(NNC(=S)Nc1ccc(S(=O)(=O)Nc2ncccn2)cc1)c1ccc(Br)cc1,inactive: -6.73%
20,COc1ccc(C)cc1Nc1n[n+](-c2ccccc2)c(-c2c(Cl)cccc2Cl)s1,active: -87.4%
